Laboratory results from publication doi:10.1101/2025.04.15.648887.

Biological target: YTHDF3 (rat (endogenous in H9c2))
Experiment: co-IP

B1: DDX5 (protein, UniProt Q6AYI1 1-615)
chain: MSSYSSDRDRGRDRGFGAPRFGGSRTGPLSGKKFGNPGEKLVKKKWNLDELPKFEKNFYQEHPDLARRTAQEVDTYRRSKEITVRGHNCPKPVLNFYEANFPANVMDVIARQNFTEPTAIQAQGWPVALSGLDMVGVAQTGSGKTLSYLLPAIVHINHQPFLERGDGPICLVLAPTRELAQQVQQVAAEYCRACRLKSTCIYGGAPKGPQIRDLERGVEICIATPGRLIDFLECGKTNLRRTTYLVLDEADRMLDMGFEPQIRKIVDQIRPDRQTLMWSATWPKEVRQLAEDFLKDYIHINIGALELSANHNILQIVDVCHDVEKDEKLIRLMEEIMSEKENKTIVFVETKRRCDELTRKMRRDGWPAMGIHGDKSQQERDWVLNEFKHGKAPILIATDVASRGLDVEDVKFVINYDYPNSSEDYIHRIGRTARSTKTGTAYTFFTPNNIKQVSDLISVLREANQAINPKLLQLVEDRGSGRSRGRGGMKDDRRDRYSAGKRGGFNTFRDRENYDRGYSSLLKRDFGAKTQNGVYSAANYTNGSFGSNFVSAGIQTSFRTGNPTGTYQNGYDSTQQYGSNVANMHNGMNQQAYAYPATAAAAPMIGYPMPTGYSQ
Question: How did the binding turn out when B1 was run?
Answer: Its binding is “binds”.

No constants are given. Whether binding was seen depends on the method and setting. In cells and extracts the contact can be indirect. A result given as binding can be weak or reduced; the word gives no strength.
